Measurements reported in PubChem BioAssay AID1224827 (NIAID, 2016)

Aim: 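Identify regulators of the macrophage TNF-alpha response to bacterial LPS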 (follow-up of hits)
Cell system: RAW264.7 G9 mouse macrophage reporter clone
Knock-down reagent: single siRNA against mouse genes, 100 nM siRNA
Time to read-out: siRNA for 2 days, then LPS about 16 h
Challenge: bacterial lipopolysaccharide (LPS), 10 ng/ml, cells fixed after overnight (about 16 h) stimulation
Measurement: 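Imaged nuclear TNF reporter intensity, background removed, scaled per plate and to non-targeting control wells, as z-scores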
Reading the numbers: TNF reporter z-score, mean: higher = stronger Tnf promoter reporter signal
Rule for the call: 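An siRNA is called active when its mean z-score over replicates is at least +2 or at most -2; control wells get no call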
This is an unselected part of about 3,800 deposited reagents. In the full data, about 2,200 (57%) are marked active. 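Active means a strong reporter change in either direction; calls are per siRNA, not per gene; qiagen siRNAs gave weaker effects.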 Entries without a mark were called inactive. Reagents against one gene are numbered here. Not all columns of the deposit are shown.

TNF reporter z-score, mean, by target and reagent
Fat4 (GeneID 329628): #1 7.35 (active); #2 4.59 (active); #3 -3.95 (active); #4 2.13 (active); #5 0.903; #6 0.15
Stmn3 (GeneID 20262): #1 -0.847; #2 -2.39 (active); #3 -5.07 (active); #4 0.281; #5 0.668; #6 -2.26 (active)
2410018L13Rik (GeneID 69732): #1 0.419; #2 -2.28 (active); #3 -5.07 (active); #4 0.048; #5 -0.716; #6 -2.09 (active)
S1pr5 (GeneID 94226): #1 1.8; #2 -1.24; #3 -5.74 (active); #4 4.4 (active); #5 1.14; #6 0.489
Bmpr2 (GeneID 12168): #1 4.56 (active); #2 0.213; #3 -3.2 (active); #4 1.88; #5 -1.48; #6 -3.1 (active)
Zfp418 (GeneID 232854): #1 -1.19; #2 -2.01 (active); #3 -2.63 (active); #4 4.14 (active); #5 1.34; #6 2.82 (active)
Mettl18 (GeneID 69962): #1 -3.99 (active); #2 -4.6 (active); #3 -4.8 (active); #4 3.37 (active); #5 0.209; #6 -0.994
Dtx3 (GeneID 80904): #1 4.46 (active); #2 -3.99 (active); #3 -4.18 (active); #4 -0.469; #5 -2.8 (active); #6 -3.29 (active)
Crebl2 (GeneID 232430): #1 -1.92; #2 -2.95 (active); #3 -4.48 (active); #4 1.32; #5 0.0253; #6 -0.742
Tyw1 (GeneID 100929): #1 -0.763; #2 -2.54 (active); #3 -3.71 (active); #4 1.42; #5 -0.802; #6 -3.33 (active)

Entries above whose gene name begins with Z or z:
TNF reporter z-score, mean, by target and reagent
Zfp418 (GeneID 232854): #1 -1.19; #2 -2.01 (active); #3 -2.63 (active); #4 4.14 (active); #5 1.34; #6 2.82 (active)
